Results deposited as PubChem BioAssay AID652272 (Drosophila RNAi Screening Center, 2013).
The deposit covers about 21,000 reagents; below is a random part of those that have a named target and a result. Over the whole deposit, 503 (2.4%) are marked active. 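Raw plate light values, not normalised; calls rest on replicate z-scores that were not deposited; hits include reporter decreases as well as increases.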 A plus sign joins genes that one reagent is predicted to hit. Not given: the amount of reagent, the time to read-out.

Aim: 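Finding fly genes that regulate Hedgehog signal transduction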 (primary screen)
System: Drosophila clone 8 (Cl8) cells
Reagent: long dsRNA against Drosophila genes
Read-out: 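Plate reader light from a firefly reporter under a ptc promoter fragment that responds to Hedgehog, with Renilla light as transfection reference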
Direction: firefly Hh reporter signal: higher = more ptc reporter light; Renilla reference signal: higher = more Renilla control light
Rule for the call: 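Called a hit if the two-replicate mean z-score lies below -2 or above +3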
Meaning of the calls: active = hit: reporter lowered or raised; inactive = not a hit

Target gene	dsRNA	firefly Hh reporter signal, replicate 1	firefly Hh reporter signal, replicate 2	firefly Hh reporter signal, replicate 3	Renilla reference signal, replicate 1	Renilla reference signal, replicate 2	call
Gr85a	DRSC12760	1.31e5			1888		inactive
Obp50e	DRSC06434	90292	69564		2480	5169	inactive
mRpS17	DRSC04463	89570	59384		2566	5792	inactive
Or74a	DRSC11245	1.31e5			2145	3687	inactive
CG4119	DRSC17741	1.04e5	89143		3048	2709	inactive
CG12516	DRSC14524	1.42e5	1.25e5		5465	4444	inactive
Mayo	DRSC14300	90660	1.45e5		3457	4104	inactive
CG43333	DRSC01917	1.15e5	49987		2675	4451	inactive
CG5111	DRSC15717	4.92e5	89876		25410	2585	inactive
Hmx	DRSC15307	84749	79200		2809	583	inactive
Hmx	DRSC15884	1.32e5	1.70e5		1946	3420	inactive
Hmx	DRSC16706	95840	80007		2085	486	inactive
Su(dx)	DRSC00791	1.21e5	89313		4907	2936	inactive
CG6660	DRSC16087	1.58e5	72243		7408	3165	inactive
CG13083	DRSC02187	75792	40516		1812	3328	inactive
Taf1	DRSC12607	53751	51786		2028	1600	inactive
CG33144	DRSC06132	67220	52157		3297	2336	inactive
CG33144	DRSC07024	99841	63140		3208	6948	inactive
stj	DRSC06124	93302	79693		4752	3586	inactive
Polr2K	DRSC05535	1.27e5	2.64e5		3338	9924	inactive
abs	DRSC12372	1.23e5	91184		6091	4305	inactive
can	DRSC10664	4.60e5	62198		2368	2368	inactive
CG17764	DRSC18135	51248	1.34e5		1556	4867	inactive
Obp50d	DRSC05483	70007	1.82e5		2007	8073	inactive
CG32773 (retired record)	DRSC17330	4.67e5	2.46e5		22717	4544	inactive
Sln	DRSC07133	79457	61332		2244	4051	inactive
CNT2	DRSC07073	1.11e5	40790		4477	1850	inactive

Copied from above for reference:
Target gene	dsRNA	firefly Hh reporter signal, replicate 1	firefly Hh reporter signal, replicate 2	firefly Hh reporter signal, replicate 3	Renilla reference signal, replicate 1	Renilla reference signal, replicate 2	call
Or74a	DRSC11245	1.31e5			2145	3687	inactive
CG4119	DRSC17741	1.04e5	89143		3048	2709	inactive
CG12516	DRSC14524	1.42e5	1.25e5		5465	4444	inactive
Mayo	DRSC14300	90660	1.45e5		3457	4104	inactive
CG43333	DRSC01917	1.15e5	49987		2675	4451	inactive

Additional reagents follow.
Target gene	dsRNA	firefly Hh reporter signal, replicate 1	firefly Hh reporter signal, replicate 2	firefly Hh reporter signal, replicate 3	Renilla reference signal, replicate 1	Renilla reference signal, replicate 2	call
CenG1A	DRSC02538	1.11e5	52552		3337	5874	inactive
CenG1A	DRSC03505	1.64e5	68467		4348	6299	inactive
CenG1A	DRSC03506	1.02e5	51397		2949	4966	inactive
CG14273	DRSC02377	1.46e5	89029		3649	6882	inactive
APC7	DRSC17937	73098	65200		1773	1540	inactive
magu	DRSC06832	69720	44544		2710	1888	inactive
Pde8	DRSC04503	1.11e5	77270		4266	2951	inactive
CG6931	DRSC10750	1.82e5	1.02e5		6768	4235	inactive
CG33695 + cana	DRSC01163	3.80e5	1.62e5		24624	9346	active
CG33695 + cana	DRSC03503	1.15e5	70316		3079	5459	inactive
mthl13	DRSC05238	1.32e5	2.48e5		3713	10664	inactive
CG9689	DRSC18440	86096	71030		2194	1708	inactive
spt4	DRSC07696	1.30e5	85209		5148	3152	inactive
CG12546	DRSC11676	1.31e5	1.16e5		4368	2790	inactive
GstE1	DRSC07437	89821	46677		2561	4221	inactive
Mnat9	DRSC14325	95852	1.46e5		3451	6551	inactive
Nplp2	DRSC09824	32314	42061	39159	3579	2809	inactive
kek4	DRSC03220	78928	68624		3833	2828	inactive
CG5500	DRSC15820	96739	1.06e5		3730	2649	inactive
CG43329	DRSC11672	71672	96295		3192	1387	inactive
P5cr-2	DRSC15889	46084	74873		1136	1881	inactive
CG10163	DRSC09710	40358	44582		3804	3600	inactive
CG3862	DRSC00631	1.42e5	1.40e5		5364	6059	inactive
Odc1	DRSC07482	1.06e5	69361		4056	2435	inactive
tum	DRSC07575	1.12e5	60016		3142	4551	inactive
CG17839	DRSC10290	77168			2625	2165	inactive
CG17839	DRSC10291	69719			2118	2064	inactive
lectin-37Da	DRSC03278	1.74e5	4.60e5	77197	4209	26772	inactive
CG1572	DRSC19686	1.61e5	1.04e5		3768	2736	inactive
jvl	DRSC13053	55761	1.17e5		10621	2272	inactive
jvl	DRSC15495	1.33e5	1.28e5		5536	4723	inactive
ND-PDSW	DRSC00715	83104	57766		4370	2860	inactive
CG6163	DRSC10595	34201	59612	40036	7709	3084	inactive
CG11458	DRSC11666	1.15e5	1.49e5		3986	4044	inactive
Mtr3	DRSC10953	79704	80106		3025	2587	inactive
CG34267	DRSC07881	91376	1.35e5		2694	5815	inactive
CG3164	DRSC00572	94589	86508		2028	1952	inactive
en	DRSC07609	87632	43835		2503	3396	inactive
CG1418	DRSC06447	1.05e5	51144		2634	4179	inactive
CCT3	DRSC16602	90361	65981		4861	3285	inactive
ms(2)35Ci	DRSC01460	1.36e5	3.19e5		4277	13296	inactive
emc	DRSC08715	3.68e5	53953		2672	2672	inactive
sip3	DRSC15402	93368	61029		2602	2433	inactive
baz	DRSC20309	64420	2.36e5		1901	8561	inactive
beat-Vb	DRSC12940	62491	2.67e5		11722	5565	inactive
beat-Vb	DRSC14844	4.46e5	81088		3862	3862	inactive
beat-Vb	DRSC14845	1.20e5	89050		4187	2329	inactive
